Source: PubChem BioAssay (EPA / NIEHS)
The shares of active, inactive and inconclusive entries below differ from those in the screen. For some of these results: Potencies of inconclusive entries are doubtful fits and often do not repeat. Calls of active or inactive are those of the source. The calls were made as follows: active = hit-call score of the fitted dose curve at least 0.9, where 1 is the maximum; inconclusive = response in the unintended direction; inactive = score below 0.9.

The chains behind the UniProt entries cited, without tags or fusion partners. Where a name states a change or a piece, a line headed by the entry shows the natural chain unless it says otherwise.
UniProt Q92731, whole entry, looked up: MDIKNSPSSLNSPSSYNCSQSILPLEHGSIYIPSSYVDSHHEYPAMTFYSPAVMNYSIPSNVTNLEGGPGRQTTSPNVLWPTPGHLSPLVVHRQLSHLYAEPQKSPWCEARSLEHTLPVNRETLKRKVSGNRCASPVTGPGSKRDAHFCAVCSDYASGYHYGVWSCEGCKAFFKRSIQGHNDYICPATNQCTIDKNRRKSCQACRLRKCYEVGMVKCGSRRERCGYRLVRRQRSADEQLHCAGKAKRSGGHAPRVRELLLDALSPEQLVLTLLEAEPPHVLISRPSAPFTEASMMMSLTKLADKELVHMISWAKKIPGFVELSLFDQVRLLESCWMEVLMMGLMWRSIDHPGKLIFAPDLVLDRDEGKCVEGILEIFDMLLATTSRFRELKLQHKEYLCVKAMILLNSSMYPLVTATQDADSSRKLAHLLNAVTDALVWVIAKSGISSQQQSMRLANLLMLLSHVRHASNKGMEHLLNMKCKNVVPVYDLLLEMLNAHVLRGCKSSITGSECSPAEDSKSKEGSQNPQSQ
UniProt P17948, whole entry, looked up: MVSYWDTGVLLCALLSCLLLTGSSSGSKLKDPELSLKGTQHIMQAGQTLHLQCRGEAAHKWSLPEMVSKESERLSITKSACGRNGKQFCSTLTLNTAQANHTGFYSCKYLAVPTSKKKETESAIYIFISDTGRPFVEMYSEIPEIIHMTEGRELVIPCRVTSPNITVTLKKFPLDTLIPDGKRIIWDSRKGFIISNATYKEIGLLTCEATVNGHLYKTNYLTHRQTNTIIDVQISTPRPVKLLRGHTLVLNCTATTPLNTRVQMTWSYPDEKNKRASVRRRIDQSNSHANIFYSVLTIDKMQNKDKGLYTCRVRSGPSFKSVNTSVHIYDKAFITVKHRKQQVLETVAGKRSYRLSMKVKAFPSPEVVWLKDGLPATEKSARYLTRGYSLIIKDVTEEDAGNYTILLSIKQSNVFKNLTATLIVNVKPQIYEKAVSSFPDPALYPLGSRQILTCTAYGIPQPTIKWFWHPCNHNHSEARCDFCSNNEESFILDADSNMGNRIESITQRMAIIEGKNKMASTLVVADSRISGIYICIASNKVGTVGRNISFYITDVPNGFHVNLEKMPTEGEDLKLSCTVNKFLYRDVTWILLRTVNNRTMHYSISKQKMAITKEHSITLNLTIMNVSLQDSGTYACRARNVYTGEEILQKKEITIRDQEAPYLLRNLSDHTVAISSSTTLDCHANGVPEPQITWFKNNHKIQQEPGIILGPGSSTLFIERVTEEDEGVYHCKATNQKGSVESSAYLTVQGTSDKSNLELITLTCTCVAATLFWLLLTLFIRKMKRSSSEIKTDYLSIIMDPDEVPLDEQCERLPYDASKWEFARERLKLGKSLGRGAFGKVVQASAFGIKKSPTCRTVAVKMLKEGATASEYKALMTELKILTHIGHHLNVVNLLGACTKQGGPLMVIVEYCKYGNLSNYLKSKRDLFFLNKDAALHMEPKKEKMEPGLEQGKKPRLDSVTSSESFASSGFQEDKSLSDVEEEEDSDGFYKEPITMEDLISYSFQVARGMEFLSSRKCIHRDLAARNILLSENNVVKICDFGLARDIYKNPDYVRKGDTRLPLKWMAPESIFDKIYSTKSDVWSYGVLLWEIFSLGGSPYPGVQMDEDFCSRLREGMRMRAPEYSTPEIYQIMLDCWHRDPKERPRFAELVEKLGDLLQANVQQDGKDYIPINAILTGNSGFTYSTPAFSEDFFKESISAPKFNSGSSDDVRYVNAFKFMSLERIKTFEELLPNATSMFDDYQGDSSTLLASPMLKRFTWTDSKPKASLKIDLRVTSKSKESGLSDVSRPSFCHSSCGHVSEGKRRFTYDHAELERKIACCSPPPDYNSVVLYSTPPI
UniProt Q01717: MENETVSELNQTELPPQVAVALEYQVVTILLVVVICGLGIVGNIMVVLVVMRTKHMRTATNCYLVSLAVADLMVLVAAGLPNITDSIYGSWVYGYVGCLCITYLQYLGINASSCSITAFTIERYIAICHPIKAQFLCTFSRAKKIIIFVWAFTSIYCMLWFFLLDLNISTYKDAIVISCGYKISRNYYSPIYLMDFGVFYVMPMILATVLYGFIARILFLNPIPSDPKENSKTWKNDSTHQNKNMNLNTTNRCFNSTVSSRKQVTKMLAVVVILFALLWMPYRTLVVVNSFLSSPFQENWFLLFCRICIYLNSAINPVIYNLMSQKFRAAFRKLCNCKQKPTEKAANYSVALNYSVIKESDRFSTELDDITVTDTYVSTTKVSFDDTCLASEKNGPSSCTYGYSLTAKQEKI
UniProt P37231: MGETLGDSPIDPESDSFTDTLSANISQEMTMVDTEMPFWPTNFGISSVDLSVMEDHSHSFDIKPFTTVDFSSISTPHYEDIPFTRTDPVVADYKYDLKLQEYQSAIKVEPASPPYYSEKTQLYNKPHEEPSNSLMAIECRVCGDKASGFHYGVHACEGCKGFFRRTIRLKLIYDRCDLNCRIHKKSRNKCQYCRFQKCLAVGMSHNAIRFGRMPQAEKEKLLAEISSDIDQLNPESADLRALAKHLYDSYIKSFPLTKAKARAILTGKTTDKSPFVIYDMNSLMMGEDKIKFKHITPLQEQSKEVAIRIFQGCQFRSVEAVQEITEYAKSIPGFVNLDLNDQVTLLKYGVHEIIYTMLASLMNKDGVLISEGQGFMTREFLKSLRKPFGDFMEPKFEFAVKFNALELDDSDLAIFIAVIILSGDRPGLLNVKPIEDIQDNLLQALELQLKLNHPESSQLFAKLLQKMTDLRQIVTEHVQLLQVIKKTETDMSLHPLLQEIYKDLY
UniProt Q07869: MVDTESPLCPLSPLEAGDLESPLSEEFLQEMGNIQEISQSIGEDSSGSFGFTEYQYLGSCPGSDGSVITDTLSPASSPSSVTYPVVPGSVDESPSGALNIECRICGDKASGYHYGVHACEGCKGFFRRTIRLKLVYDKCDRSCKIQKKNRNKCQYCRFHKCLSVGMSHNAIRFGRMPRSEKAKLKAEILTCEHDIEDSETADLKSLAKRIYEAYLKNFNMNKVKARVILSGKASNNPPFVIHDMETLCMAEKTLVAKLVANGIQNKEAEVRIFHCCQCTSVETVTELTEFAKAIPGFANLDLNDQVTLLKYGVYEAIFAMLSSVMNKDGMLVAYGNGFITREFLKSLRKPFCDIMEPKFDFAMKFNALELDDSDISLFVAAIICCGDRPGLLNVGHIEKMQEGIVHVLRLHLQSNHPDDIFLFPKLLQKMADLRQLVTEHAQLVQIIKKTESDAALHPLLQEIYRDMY
UniProt O75469: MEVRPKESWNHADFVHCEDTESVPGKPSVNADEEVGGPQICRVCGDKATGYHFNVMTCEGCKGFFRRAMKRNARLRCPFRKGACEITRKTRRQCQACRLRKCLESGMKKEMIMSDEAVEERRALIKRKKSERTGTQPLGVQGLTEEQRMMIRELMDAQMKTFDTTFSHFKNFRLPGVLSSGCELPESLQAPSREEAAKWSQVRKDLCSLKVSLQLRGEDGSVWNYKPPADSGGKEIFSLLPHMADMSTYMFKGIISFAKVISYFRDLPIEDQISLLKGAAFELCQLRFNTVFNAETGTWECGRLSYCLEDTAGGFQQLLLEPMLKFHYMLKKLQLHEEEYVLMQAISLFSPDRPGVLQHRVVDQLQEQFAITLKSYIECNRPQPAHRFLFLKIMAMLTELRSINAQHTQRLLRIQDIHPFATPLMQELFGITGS
UniProt Q96RI1: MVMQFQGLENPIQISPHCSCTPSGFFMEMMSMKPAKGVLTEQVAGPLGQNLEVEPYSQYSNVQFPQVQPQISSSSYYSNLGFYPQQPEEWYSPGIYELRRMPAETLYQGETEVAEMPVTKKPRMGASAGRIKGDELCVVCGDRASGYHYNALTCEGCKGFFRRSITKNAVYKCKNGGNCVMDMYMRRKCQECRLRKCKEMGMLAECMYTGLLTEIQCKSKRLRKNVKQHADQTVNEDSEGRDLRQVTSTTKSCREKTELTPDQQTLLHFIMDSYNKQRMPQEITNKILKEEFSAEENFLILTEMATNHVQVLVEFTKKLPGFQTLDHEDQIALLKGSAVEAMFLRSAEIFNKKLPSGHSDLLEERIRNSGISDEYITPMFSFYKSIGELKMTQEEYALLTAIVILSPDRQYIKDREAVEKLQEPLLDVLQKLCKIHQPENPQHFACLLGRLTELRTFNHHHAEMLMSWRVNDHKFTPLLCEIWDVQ
UniProt P21709: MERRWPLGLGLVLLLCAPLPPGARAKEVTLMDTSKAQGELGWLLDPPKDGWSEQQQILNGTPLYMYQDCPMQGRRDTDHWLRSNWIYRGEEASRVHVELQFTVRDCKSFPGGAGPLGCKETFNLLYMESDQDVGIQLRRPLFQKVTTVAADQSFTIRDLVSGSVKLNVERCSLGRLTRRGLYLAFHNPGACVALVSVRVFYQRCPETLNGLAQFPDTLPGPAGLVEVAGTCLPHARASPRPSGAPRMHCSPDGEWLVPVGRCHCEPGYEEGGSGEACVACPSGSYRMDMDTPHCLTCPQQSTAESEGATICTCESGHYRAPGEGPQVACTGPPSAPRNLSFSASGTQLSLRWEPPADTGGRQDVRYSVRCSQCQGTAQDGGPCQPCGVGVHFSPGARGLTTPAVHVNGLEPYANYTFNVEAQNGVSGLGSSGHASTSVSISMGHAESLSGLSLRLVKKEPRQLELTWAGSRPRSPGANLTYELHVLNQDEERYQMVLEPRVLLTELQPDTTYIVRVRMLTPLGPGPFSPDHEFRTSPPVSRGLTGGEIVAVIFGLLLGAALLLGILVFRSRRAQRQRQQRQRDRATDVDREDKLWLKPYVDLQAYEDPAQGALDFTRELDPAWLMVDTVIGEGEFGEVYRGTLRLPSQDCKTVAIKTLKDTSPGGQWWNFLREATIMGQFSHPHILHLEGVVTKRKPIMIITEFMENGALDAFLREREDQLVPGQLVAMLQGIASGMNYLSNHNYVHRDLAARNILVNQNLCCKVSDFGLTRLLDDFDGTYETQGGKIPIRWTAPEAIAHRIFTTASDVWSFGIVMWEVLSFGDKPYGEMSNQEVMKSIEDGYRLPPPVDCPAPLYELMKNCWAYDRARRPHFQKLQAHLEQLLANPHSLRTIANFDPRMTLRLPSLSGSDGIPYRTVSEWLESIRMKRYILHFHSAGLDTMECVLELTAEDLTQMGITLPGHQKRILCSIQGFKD
UniProt P23975, whole entry, looked up: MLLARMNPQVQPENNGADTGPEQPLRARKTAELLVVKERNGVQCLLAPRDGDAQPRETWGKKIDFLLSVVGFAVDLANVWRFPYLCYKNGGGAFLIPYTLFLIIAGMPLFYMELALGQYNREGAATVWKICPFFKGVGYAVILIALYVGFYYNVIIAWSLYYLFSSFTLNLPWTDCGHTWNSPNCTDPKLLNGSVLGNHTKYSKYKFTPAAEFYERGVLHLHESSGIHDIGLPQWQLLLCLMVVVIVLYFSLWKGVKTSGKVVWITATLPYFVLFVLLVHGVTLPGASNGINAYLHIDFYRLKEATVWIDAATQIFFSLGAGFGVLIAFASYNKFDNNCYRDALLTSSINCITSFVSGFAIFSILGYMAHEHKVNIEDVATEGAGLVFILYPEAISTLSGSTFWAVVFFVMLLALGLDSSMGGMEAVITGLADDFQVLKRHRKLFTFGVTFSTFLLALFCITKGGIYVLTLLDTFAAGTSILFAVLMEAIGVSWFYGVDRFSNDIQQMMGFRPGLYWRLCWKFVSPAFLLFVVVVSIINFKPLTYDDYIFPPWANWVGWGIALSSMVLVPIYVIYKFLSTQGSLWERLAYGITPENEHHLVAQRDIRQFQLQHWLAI

Columns and labels:
[1] = target: Estrogen receptor beta (Homo sapiens) (UniProt Q92731); test: OT_ER_ERbERb_0480: Odyssey Thera (OT) 8-hour HEK293T Protein-Complementation Assay for Estrogen Receptor-beta/-beta Homodimer (AID 2283357);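 also: active means signal gain over DMSO baseline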
Method in brief: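 Readout: increase in mean fluorescence intensity (nucleus for agonists; nucleus plus cytoplasm for antagonists) relative to DMSO, from a reporter-fragment complementation of human ER-beta LBD homodimer in HEK293T cells dosed 8 hours.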

[2] = ACEA_AR_antagonist_AUC_viability: ACEA Biosciences xCELLigence Real-Time Cell Analysis on Androgen Receptor Antagonism for Viability (AID 2283776);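 also: 22Rv1 human prostate cancer cells growing on impedance electrode plates; area under impedance growth curve at 80 h after dosing as viability; hits lower the growth signal relative to DMSO meaning cytotoxicity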
Method in brief: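 Real-time electrical impedance tracks 22Rv1 proliferation after continuous compound exposure (top 100 uM final, 1:4 steps, 8 concentrations). The 80 h area-under-curve serves as the cytotoxicity readout relative to DMSO.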

[3] = target: human Vascular Endothelial Growth Factor Receptor 1 (VEGFR1), FLT1 (gene 2321) (UniProt P17948); test: NVS_ENZ_hVEGFR1: NovaScreen (NVS) Enzymatic Assay for human Vascular Endothelial Growth Factor Receptor 1 (VEGFR1) (AID 2283226)
Method in brief: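 Cell-free assay of recombinant human VEGFR1 kinase with substrate, measured 1 h after dosing; fluorescence with electrophoretic mobility-shift separation of substrate and product, referenced to DMSO; primary screen at 25 uM in duplicate, actives then run in concentration series.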

[4] = target: rat Thyrotropin Releasing Hormone Receptor (TRH), Trhr (gene 25570) (UniProt Q01717); test: NVS_GPCR_rTRH: NovaScreen (NVS) G Protein-Coupled Receptor Assay for rat Thyrotropin Releasing Hormone Receptor (TRH) (AID 2283329);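 also: hit means lower bound tracer signal versus DMSO baseline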
Method in brief: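 Cell-free radioligand binding on rat forebrain membranes; bound tracer measured by filter-based scintillation counting 4 hours after dosing. Loss of signal versus DMSO baseline indicates displacement; primary screen at 25 uM in duplicate, actives then run in concentration series.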

[5] = target: Peroxisome proliferator-activated receptor gamma (Homo sapiens) (UniProt P37231); test: NVS_NR_hPPARg: NovaScreen (NVS) Nuclear Receptor Binding Assay for human Peroxisome Proliferator-activated Receptor gamma (PPARg) (AID 2283370)
Method in brief: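 Fluorescence polarization measures competitive binding to extracted PPARg in a cell-free format. Reading is taken at 2 h; activity is signal loss relative to DMSO. Screening at 25 uM in duplicate preceded confirmatory dose series.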

[6] = target: human Peroxisome Proliferator-activated Receptor alpha (PPARa), PPARA (gene 5465) (UniProt Q07869); test: NVS_NR_hPPARa: NovaScreen (NVS) Nuclear Receptor Binding Assay for human Peroxisome Proliferator-activated Receptor alpha (PPARa) (AID 2283359);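 also: activity means loss of TR-FRET signal versus DMSO baseline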
Method in brief: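 Cell-free binding assay with extracted human protein, read by TR-FRET 1 h after chemical dosing. Loss of signal relative to DMSO baseline indicates binding. Primary screen used duplicate single concentration (25 uM); actives followed up in concentration series.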

[7] = target: Nuclear receptor subfamily 1 group I member 2 (Homo sapiens) (UniProt O75469); test: NVS_NR_hPXR: NovaScreen (NVS) Nuclear Receptor Binding Assay for human Pregnane X Receptor (PXR) (AID 2283365);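 also: a drop in FRET signal versus DMSO baseline means the compound binds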
Method in brief: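 Binding was measured by time-resolved fluorescence resonance energy transfer after a 2 h exposure of extracted human PXR protein without cells. Compounds were first tested at 25 uM in duplicate, with concentration series for actives; DMSO defined baseline.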

[8] = Tanguay_ZF_120hpf_OTIC_legacy: (Legacy) Oregon State University Tanguay Lab 120 Hour Post-fertilization zebrafish Assay for Otic Vesicle Malformation (AID 2283639)
Method in brief: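 Tropical 5D wild-type zebrafish embryos were exposed statically in sealed, foil-covered plates at 28C until 120 hpf, with 0.64% (vol/vol) DMSO final. Otic vesicle malformation was scored present/absent by brightfield microscopy, with DMSO as baseline.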

[9] = Tanguay_ZF_120hpf_PFIN_legacy: (Legacy) Oregon State University Tanguay Lab 120 Hour Post-fertilization zebrafish Assay for Pectoral Fin Malformation (AID 2283648);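 also: each larva judged yes or no for fin defect by brightfield with dead larvae skipped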
Method in brief: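 Tropical 5D wild-type embryos, dechorionated with pronase at 4 hpf, were placed singly in wells at 6 hpf and statically exposed until 120 hpf at 28C, sealed and dark, with 0.64% (vol/vol) final DMSO; pectoral fin malformation scored present/absent.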

[10] = Tanguay_ZF_120hpf_TRUN_legacy: (Legacy) Oregon State University Tanguay Lab 120 Hour Post-fertilization zebrafish Assay for Truncated Body (AID 2283655)
Method in brief: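 5D wild-type larvae; pronase dechorionation; static exposure 6→120 hpf, 28C; DMSO 0.64% final; 5uM trimethyltin chloride positive control. Readout: presence/absence of truncated body, analyzed relative to DMSO.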

[11] = target: Bile acid receptor (Homo sapiens) (UniProt Q96RI1); test: OT_FXR_FXRSRC1_1440: Odyssey Thera (OT) 24-hour HEK293T Protein-Complementation Assay for Farnesoid X receptor/SRC-1 Co-activator (AID 2283384)
Method in brief: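 HEK293T cells were dosed with compound and read 24 h later by fluorescence intensity from protein-fragment complementation reporting FXR/SRC-1 co-activator interaction. Gain of signal was fitted relative to DMSO negative control as baseline.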

[12] = Tanguay_ZF_120hpf_SOMI_legacy: (Legacy) Oregon State University Tanguay Lab 120 Hour Post-fertilization zebrafish Assay for Somite Malformation (AID 2283647)
Method in brief: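 5D WT zebrafish; chorion removed 4 hpf; 1 embryo/well from 6 hpf; static exposure to 120 hpf, 28C, 0.64% DMSO final. Endpoint: somite malformation, binary, brightfield. Mortality excluded.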

[13] = ACEA_AR_agonist_AUC_viability: ACEA Biosciences xCELLigence Real-Time Cell Analysis on Androgen Receptor Agonism for Viability (AID 2283775);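 as to AC50: viability read 80 hours after compound addition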
Method in brief: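 Read-out is area under the impedance curve at 80 h post-dose in 22Rv1 cells, with DMSO as baseline and signal loss taken as reduced viability. Compounds ran in duplicate from 100 uM final.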

[14] = target: human Ephrin type-A Receptor 1 (EphA1), EPHA1 (gene 2041) (UniProt P21709); test: NVS_ENZ_hEphA1: NovaScreen (NVS) Enzymatic Assay for human Ephrin type-A Receptor 1 (EphA1) (AID 2283158);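 also: activity is signal loss versus DMSO meaning EphA1 kinase inhibition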
Method in brief: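 Biochemical kinase assay run cell-free; 1 h incubation; readout is fluorescence with mobility-shift separation of product. Concentration-response up to 50 uM for actives from a 25 uM screen.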

[15] = target: human Norepinephrine Transporter (NET), SLC6A2 (gene 6530) (UniProt P23975); test: NVS_TR_hNET: NovaScreen (NVS) Transporter Assay for human Norepinephrine Transporter (NET) (AID 2283377);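 also: cell-free membrane protein extracted from CHO cells expressing human NET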
Method in brief: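 Radioligand binding to human NET in cell-free CHO-derived protein preparations, read by filter-based scintillation counting 1 hour after dosing. Loss of signal versus DMSO baseline indicated displacement; primary screening in duplicate at 25 uM, actives then titrated.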

[16] = Tanguay_ZF_120hpf_CIRC_legacy: (Legacy) Oregon State University Tanguay Lab 120 Hour Post-fertilization zebrafish Assay for Circulatory Malformation (AID 2283651)
Method in brief: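 Tropical 5D wild-type embryos, dechorionated with pronase at 4 hpf, were placed singly in wells at 6 hpf and exposed statically at 28C to 120 hpf (0.64% DMSO final). Circulatory malformation was scored present/absent by brightfield microscopy.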

[17] = CCTE_Deisenroth_AIME_384WELL_CTox_Inactive: Cytotoxicity Assessment (CTOX) in CCTE's 384-well Estrogen Receptor Transactivation Assay without AIME metabolic competence (metabolism negative), Deisenroth Lab (AID 2284039);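 also: cell viability via live-cell protease substrate cleaved to fluorescent probe; cells exposed 24 h to medium preincubated 2 h with alginate-water beads without S9; loss of fluorescence signal means loss of viability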
Method in brief: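 VM7Luc4E2 human breast cells received conditioned medium from a 2 h incubation of chemical with alginate-water microspheres (no S9), then were exposed 24 h. Viability was read as protease-substrate cleavage to a fluorescent probe; loss of signal was fitted bidirectionally over 0.002–200 uM.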

O=C1C(c2[nH]c3ccc(S(=O)(=O)O)cc3c2O)=Nc2ccc(S(=O)(=O)O)cc21
AC50 [1]: inconclusive: 50 µM | AC50 [2]: inconclusive: 0.0917 µM

C1CCCCC1
AC50 [3]: inconclusive: 5.34 µM

O=S(=O)(O)c1cccc2ccccc12
AC50 [4]: inconclusive: 0.248 µM | AC50 [5]: inconclusive: 0.261 µM

CCOC(=O)C(C)(C)Oc1ccc(Cl)cc1
AC50 [6]: inconclusive: 0.179 µM | AC50 [7]: inconclusive: 0.00232 µM | AC50 [8]: inconclusive: 8.03 µM | AC50 [9]: inconclusive: 202 µM | AC50 [10]: active: 65.3 µM

O=C1OC(=O)c2c(Cl)c(Cl)c(Cl)c(Cl)c21
outcome [4]: inactive | AC50 [11]: inconclusive: 50 µM

CC(C)NCC(O)c1ccc(O)c(O)c1 (centres undefined)
outcome [1]: inactive | outcome [6]: inactive | AC50 [12]: inconclusive: 137 µM | AC50 [9]: inconclusive: 200 µM | AC50 [13]: inconclusive: 26.2 µM | AC50 [2]: inconclusive: 9.92 µM

CCCCCCCC(=O)OCC(O)CO (centres undefined)
AC50 [4]: inconclusive: 25 µM | AC50 [1]: inconclusive: 50 µM

CC(C)C[C@H](NC(=O)OCC1c2ccccc2-c2ccccc21)C(=O)O
AC50 [6]: inconclusive: 25 µM | AC50 [5]: active: 46.6 µM

c1ccc2cc(Nc3ccc(Nc4ccc5ccccc5c4)cc3)ccc2c1
outcome [14]: inactive

CN(C)C(=O)NC1(c2ccccc2)CCN(CC[C@@]2(c3ccc(F)c(F)c3)CN(C(=O)c3ccccc3)CCO2)CC1
outcome [3]: inactive | AC50 [6]: inconclusive: 23.5 µM | outcome [7]: inactive | outcome [15]: inactive

O=C(O)CCN(C1(C(=O)NO)CCCC1)S(=O)(=O)c1ccc(Oc2ccc(F)cc2)cc1
AC50 [8]: inconclusive: 32.8 µM | AC50 [10]: inconclusive: 21.3 µM

S=c1[nH]c2ccccc2s1
AC50 [6]: inconclusive: 0.0463 µM | outcome [5]: inactive | AC50 [8]: active: 11.2 µM | AC50 [12]: active: 44.5 µM | AC50 [9]: active: 10.4 µM | AC50 [16]: inconclusive: 42.8 µM | AC50 [10]: active: 11.4 µM | AC50 [13]: inconclusive: 50 µM

CCCCC(CC)COP(=O)(O)OCC(CC)CCCC (centres undefined)
outcome [4]: inactive | AC50 [11]: active: 71.8 µM

O=C(CC(C(=O)OC1CCCCC1)S(=O)(=O)O)OC1CCCCC1 (centres undefined)
AC50 [7]: active: 8.32 µM | outcome [5]: inactive

CC(O)CN (centres undefined)
outcome [13]: inactive

CCC1COC(=O)O1 (centres undefined)
AC50 [4]: inconclusive: 0.477 µM | AC50 [13]: inconclusive: 16.6 µM | outcome [2]: inactive | outcome [17]: inactive

COC(=O)C(C)Oc1ccc(Oc2ncc(C(F)(F)F)cc2Cl)cc1 (centres undefined)
AC50 [4]: inconclusive: 25 µM | AC50 [6]: inconclusive: 0.309 µM | AC50 [5]: inconclusive: 25 µM
